The source of these data is the supplement of paper PMC10849652.

Amino acid sequences for entries named in this document (tags omitted). A change or cut given only in a name is not applied to a line headed by its entry.
UniProt Q04656: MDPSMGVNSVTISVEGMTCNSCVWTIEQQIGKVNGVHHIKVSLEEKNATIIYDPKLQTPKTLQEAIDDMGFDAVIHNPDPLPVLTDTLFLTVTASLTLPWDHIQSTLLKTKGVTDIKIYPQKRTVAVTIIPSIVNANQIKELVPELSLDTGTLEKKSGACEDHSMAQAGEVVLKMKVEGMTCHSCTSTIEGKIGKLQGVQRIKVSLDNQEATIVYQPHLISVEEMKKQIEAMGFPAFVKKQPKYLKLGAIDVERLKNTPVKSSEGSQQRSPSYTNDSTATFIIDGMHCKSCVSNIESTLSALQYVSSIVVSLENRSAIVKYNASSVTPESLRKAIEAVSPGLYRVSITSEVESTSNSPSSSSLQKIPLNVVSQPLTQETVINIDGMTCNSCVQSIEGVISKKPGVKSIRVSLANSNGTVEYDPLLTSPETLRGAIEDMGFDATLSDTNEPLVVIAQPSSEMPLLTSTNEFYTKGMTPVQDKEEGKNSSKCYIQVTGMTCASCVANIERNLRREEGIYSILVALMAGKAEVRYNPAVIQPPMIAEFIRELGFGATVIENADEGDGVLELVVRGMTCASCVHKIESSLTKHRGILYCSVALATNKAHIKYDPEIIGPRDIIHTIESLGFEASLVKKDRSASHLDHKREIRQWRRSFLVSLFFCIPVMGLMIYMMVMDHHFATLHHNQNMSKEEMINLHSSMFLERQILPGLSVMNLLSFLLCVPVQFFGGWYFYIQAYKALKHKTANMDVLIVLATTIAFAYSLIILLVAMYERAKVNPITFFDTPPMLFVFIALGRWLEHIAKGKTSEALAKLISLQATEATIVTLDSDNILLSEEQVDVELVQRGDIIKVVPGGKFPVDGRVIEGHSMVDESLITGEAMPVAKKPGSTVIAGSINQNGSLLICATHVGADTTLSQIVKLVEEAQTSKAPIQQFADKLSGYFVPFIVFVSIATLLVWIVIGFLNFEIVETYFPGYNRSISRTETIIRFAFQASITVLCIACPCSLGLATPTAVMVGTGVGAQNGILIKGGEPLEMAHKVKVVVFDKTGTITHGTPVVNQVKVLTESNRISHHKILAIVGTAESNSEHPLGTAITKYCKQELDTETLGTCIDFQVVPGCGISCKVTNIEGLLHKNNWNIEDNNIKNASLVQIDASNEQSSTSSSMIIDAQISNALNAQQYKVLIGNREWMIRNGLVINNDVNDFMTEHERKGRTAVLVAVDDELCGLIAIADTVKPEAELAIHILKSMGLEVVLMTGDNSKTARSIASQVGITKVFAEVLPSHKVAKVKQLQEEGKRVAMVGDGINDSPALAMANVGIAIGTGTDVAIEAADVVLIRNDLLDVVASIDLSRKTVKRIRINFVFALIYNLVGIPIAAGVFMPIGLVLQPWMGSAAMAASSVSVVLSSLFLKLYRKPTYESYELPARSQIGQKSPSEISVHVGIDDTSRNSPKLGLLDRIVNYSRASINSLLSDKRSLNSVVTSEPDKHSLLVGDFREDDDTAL
UniProt Q8IZT6: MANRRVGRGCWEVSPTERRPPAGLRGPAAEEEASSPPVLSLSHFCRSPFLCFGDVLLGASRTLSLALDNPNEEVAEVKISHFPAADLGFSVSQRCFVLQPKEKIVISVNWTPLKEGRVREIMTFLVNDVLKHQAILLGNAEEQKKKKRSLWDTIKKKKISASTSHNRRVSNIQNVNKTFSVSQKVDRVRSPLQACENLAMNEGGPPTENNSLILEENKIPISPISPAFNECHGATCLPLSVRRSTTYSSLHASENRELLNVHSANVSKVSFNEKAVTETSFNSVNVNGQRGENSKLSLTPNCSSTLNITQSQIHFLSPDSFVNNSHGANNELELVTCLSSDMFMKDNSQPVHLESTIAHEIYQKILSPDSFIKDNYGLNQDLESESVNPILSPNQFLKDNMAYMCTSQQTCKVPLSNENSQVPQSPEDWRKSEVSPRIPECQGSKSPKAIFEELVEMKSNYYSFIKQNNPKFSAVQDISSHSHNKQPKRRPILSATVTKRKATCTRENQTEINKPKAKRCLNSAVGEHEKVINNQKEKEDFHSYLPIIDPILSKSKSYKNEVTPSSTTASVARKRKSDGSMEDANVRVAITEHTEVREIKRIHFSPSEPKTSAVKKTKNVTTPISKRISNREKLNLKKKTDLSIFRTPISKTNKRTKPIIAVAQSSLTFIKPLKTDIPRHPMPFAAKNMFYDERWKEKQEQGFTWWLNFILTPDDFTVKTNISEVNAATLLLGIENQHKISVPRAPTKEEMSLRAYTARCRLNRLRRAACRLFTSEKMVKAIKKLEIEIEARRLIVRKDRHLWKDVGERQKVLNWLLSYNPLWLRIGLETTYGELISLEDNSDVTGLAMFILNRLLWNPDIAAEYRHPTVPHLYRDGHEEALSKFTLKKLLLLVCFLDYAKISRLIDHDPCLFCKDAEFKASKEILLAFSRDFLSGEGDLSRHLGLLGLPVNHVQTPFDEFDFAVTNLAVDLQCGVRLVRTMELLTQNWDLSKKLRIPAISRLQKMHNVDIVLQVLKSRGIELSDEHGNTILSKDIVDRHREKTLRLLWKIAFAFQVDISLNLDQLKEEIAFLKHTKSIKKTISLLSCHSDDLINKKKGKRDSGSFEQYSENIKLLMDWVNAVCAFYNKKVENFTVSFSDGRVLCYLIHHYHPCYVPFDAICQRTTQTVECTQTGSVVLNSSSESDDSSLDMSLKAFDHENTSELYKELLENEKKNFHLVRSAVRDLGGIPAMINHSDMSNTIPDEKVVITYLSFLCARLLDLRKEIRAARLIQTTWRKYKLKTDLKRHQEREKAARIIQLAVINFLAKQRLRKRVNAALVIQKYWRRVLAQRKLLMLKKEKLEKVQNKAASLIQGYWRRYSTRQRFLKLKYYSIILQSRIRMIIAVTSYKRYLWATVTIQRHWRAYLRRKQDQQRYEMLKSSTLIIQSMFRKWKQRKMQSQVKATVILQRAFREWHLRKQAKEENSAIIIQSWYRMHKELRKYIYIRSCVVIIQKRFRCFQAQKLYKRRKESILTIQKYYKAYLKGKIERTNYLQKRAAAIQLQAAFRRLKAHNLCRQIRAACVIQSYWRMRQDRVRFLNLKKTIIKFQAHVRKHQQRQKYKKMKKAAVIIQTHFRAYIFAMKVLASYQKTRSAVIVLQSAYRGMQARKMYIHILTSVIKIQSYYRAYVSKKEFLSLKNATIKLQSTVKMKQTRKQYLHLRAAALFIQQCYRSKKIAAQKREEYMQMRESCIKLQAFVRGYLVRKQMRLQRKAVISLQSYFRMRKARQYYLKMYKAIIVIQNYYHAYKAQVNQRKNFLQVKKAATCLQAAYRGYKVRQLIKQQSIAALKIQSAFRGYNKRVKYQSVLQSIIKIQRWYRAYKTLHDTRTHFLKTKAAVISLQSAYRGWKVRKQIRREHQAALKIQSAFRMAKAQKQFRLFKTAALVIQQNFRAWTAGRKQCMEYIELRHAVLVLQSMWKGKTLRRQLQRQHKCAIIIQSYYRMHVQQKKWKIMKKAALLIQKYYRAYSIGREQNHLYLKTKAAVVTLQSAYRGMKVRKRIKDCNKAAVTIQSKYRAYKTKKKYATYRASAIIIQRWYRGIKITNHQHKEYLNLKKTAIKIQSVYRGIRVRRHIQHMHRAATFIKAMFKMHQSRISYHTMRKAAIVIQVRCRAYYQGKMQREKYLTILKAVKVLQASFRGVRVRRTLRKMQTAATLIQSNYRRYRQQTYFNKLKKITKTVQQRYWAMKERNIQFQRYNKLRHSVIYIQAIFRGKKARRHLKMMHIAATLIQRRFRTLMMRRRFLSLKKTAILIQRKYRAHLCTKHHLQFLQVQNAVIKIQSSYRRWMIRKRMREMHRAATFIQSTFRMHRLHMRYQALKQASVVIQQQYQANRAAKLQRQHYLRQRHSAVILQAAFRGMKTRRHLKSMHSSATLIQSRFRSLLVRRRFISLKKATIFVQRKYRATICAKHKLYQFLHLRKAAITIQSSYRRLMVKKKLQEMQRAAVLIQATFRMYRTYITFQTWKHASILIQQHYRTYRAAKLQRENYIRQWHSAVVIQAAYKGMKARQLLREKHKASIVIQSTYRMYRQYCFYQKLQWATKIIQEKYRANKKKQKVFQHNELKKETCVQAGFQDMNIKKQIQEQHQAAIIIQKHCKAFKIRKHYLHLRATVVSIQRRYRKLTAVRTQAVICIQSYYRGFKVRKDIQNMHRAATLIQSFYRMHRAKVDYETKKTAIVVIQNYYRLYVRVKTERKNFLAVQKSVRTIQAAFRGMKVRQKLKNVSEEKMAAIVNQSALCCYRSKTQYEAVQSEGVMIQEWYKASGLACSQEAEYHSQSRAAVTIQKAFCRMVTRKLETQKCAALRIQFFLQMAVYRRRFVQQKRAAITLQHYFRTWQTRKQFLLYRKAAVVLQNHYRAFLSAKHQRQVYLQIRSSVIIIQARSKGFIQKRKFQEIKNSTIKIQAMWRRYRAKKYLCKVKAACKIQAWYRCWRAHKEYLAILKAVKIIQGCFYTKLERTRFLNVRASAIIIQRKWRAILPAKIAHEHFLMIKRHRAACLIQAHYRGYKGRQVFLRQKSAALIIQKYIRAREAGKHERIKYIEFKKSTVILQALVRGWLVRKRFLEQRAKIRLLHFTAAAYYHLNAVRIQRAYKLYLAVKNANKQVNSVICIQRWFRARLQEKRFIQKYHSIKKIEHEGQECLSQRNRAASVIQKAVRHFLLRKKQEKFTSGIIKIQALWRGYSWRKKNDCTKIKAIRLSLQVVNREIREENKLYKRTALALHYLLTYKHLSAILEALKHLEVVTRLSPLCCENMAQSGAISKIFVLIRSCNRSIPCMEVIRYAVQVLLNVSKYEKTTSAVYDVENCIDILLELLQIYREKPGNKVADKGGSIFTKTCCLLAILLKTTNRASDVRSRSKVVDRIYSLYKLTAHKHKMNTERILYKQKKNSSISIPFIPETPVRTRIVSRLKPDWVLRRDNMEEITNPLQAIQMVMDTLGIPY
UniProt P04424, whole entry, looked up: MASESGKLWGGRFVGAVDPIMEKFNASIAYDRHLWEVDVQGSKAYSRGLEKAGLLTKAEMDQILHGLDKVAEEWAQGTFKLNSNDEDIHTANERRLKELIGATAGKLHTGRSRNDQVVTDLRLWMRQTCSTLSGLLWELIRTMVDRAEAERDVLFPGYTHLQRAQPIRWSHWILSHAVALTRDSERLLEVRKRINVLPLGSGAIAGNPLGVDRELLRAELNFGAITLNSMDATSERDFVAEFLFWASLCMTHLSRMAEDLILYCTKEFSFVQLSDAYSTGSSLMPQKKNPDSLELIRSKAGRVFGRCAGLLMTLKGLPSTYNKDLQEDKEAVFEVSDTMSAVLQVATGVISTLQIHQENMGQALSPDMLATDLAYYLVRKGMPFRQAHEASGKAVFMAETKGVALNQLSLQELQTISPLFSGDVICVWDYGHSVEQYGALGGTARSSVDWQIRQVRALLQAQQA
UniProt P25705: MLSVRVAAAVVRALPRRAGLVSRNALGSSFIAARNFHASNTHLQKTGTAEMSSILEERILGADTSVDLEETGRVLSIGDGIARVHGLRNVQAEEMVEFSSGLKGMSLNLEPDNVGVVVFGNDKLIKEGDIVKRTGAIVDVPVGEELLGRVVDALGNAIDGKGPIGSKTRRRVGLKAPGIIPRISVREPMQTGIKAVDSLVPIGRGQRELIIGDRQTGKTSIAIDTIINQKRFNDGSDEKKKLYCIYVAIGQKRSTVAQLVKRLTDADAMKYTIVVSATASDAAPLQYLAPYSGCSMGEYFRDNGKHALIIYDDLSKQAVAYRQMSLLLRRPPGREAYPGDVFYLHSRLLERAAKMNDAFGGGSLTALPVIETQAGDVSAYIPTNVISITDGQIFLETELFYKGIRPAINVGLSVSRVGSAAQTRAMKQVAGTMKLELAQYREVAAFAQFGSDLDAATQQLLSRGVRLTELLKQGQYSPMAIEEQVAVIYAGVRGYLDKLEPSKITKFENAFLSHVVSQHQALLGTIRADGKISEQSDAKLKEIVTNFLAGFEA
UniProt Q8N5M1: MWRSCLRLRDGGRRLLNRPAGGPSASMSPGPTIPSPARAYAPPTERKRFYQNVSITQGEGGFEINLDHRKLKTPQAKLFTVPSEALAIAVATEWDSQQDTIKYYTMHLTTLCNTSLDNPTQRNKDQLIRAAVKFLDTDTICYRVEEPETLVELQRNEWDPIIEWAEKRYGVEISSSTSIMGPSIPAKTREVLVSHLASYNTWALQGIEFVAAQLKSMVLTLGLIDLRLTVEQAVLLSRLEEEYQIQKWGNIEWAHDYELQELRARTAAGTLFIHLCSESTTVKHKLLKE
UniProt Q9H2C2: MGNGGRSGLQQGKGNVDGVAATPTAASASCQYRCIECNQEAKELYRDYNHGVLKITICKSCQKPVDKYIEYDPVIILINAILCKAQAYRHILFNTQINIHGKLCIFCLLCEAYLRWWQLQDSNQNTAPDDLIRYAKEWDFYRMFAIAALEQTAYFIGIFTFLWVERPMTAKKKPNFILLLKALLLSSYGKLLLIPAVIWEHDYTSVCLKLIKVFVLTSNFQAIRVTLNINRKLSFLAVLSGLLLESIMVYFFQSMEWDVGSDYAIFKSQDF

This is one part of the list.

Compound in one assay: CN(CCOC1=CC=C(C=C1)C[C@H]2C(=O)NC(=O)S2)C3=CC=CC=N3 (racemic) [rosiglitazone]
Nature of the assay: log2 fold change, soluble protein after heating vs DMSO (PISA); higher = thermal stabilisation; K562 cells, 10 uM, 30 min; active = over 0.2 and 3.5 SD of the protein, either way, in both replicates (recomputed). In short, it runs like this: (§1)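 Thermal stability values are relative to control samples and come from duplicates. They are expressed as log2 fold changes. For measurement, K562 cells (2×10^6 cells/mL) received 10 μM compound for 30 min, and aliquots were heated for 3 min over 48°C-58°C, pooled, and extracted at 4°C in PBS with 0.5% NP-40. Soluble protein, the supernatant after 21,000xg for 90 min, was quantified by TMTpro 16plex LC-MS/MS with equalised channel sums.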
As for ATP7A isoform 3 (UniProt Q04656), the log2 fold change is inactive: 0.016.

ARPC1B (UniProt O15143): the log2 fold change was inactive: -0.034.

Regarding ASAP1 isoform 2 (UniProt Q9ULH1), the log2 fold change was inactive: 0.053.

For the target ATG3 (UniProt Q9NT62), the log2 fold change was inactive: 0.01.

Consider ARL6IP1 (UniProt Q15041), for which the log2 fold change was inactive: -0.015.

As to ATG2A isoform 3 (UniProt Q2TAZ0), the log2 fold change was inactive: 0.025.

Consider ARRB2 isoform 4 (UniProt P32121), for which the log2 fold change is inactive: 0.004.

As to ATP5MF (UniProt P56134), the log2 fold change is inactive: -0.008.

Regarding ASPM (UniProt Q8IZT6), the log2 fold change was inactive: -0.065.

In the case of ATP6V1A (UniProt P38606), the log2 fold change was inactive: 0.005.

With ATP11B (UniProt Q9Y2G3), the log2 fold change was inactive: -0.012.

Regarding ASL (UniProt P04424), the log2 fold change was inactive: 0.008.

For ATP6AP2 (UniProt O75787), the log2 fold change was inactive: 0.004.

Regarding ASAH1 isoform 2 (UniProt Q13510), the log2 fold change was inactive: -0.007.

Regarding ATP5F1A (UniProt P25705), the log2 fold change was inactive: -0.005.

For the target ARIH2 (UniProt O95376), the log2 fold change was inactive: -0.014.

With ARPC3 (UniProt O15145), the log2 fold change was inactive: -0.045.

Turning to ATPAF2 (UniProt Q8N5M1), the log2 fold change is inactive: 0.03.

As for ATG2B (UniProt Q96BY7), the log2 fold change is inactive: 0.004.

With ARPC1A (UniProt Q92747), the log2 fold change was inactive: -0.072.

As for ATP5F1E (UniProt P56381), the log2 fold change was inactive: -0.065.

Take ATE1 isoform 2 (UniProt O95260): the log2 fold change was inactive: 0.039.

Regarding ASPH (UniProt Q12797), the log2 fold change is inactive: -0.052.

Turning to ATP2C1 isoform 7 (UniProt P98194), the log2 fold change was inactive: 0.029.

As to ATL3 (UniProt Q6DD88), the log2 fold change was inactive: 0.024.

As to ARPC5 (UniProt O15511), the log2 fold change is inactive: -0.017.

For ARPC2 (UniProt O15144), the log2 fold change is inactive: -0.016.

For the target ATP5MC2 isoform 2 (UniProt Q06055), the log2 fold change is inactive: 0.031.

Consider ARMC1 (UniProt Q9NVT9), for which the log2 fold change was inactive: 0.053.

With ATF2 (UniProt P15336), the log2 fold change is inactive: -0.018.

For the target ATP6V0D1 (UniProt P61421), the log2 fold change is inactive: 0.

ASCC3 (UniProt Q8N3C0): the log2 fold change is inactive: -0.147.

For ARPC4 isoform 3 (UniProt P59998), the log2 fold change was inactive: 0.007.

On to ARV1 (UniProt Q9H2C2), for which the log2 fold change is inactive: 0.004.

ARSB (UniProt P15848): the log2 fold change was inactive: 0.011.

For the target ASF1A (UniProt Q9Y294), the log2 fold change was inactive: -0.014.

Regarding ATP11C (UniProt Q8NB49), the log2 fold change is inactive: -0.021.

Regarding ATP2B4 (UniProt P23634), the log2 fold change was inactive: -0.049.

Compound in a further assay: CN1C2=C(C3=C1C(=O)N(N=C3)CC4=CC(=CC=C4)N)SC(=C2)S(=O)C
Described as above. In short, it runs like this:
as §1
With ATP7A isoform 3 (UniProt Q04656), the log2 fold change is inactive: -0.03.

Take ARPC1B (UniProt O15143): the log2 fold change was inactive: -0.077.

As for ASAP1 isoform 2 (UniProt Q9ULH1), the log2 fold change is inactive: -0.002.

ATG3 (UniProt Q9NT62): the log2 fold change is inactive: -0.023.

For ARL6IP1 (UniProt Q15041), the log2 fold change is inactive: 0.015.

On to ATG2A isoform 3 (UniProt Q2TAZ0), for which the log2 fold change was inactive: -0.057.

Consider ARRB2 isoform 4 (UniProt P32121), for which the log2 fold change is inactive: 0.039.

For ATP5MF (UniProt P56134), the log2 fold change is inactive: 0.

For ASPM (UniProt Q8IZT6), the log2 fold change was inactive: -0.096.

For the target ATP6V1A (UniProt P38606), the log2 fold change was inactive: 0.

As to ATP11B (UniProt Q9Y2G3), the log2 fold change was inactive: -0.021.

For ASL (UniProt P04424), the log2 fold change was inactive: -0.032.

Consider ATP6AP2 (UniProt O75787), for which the log2 fold change is inactive: 0.072.

Turning to ASAH1 isoform 2 (UniProt Q13510), the log2 fold change was inactive: -0.032.

On to ATP5F1A (UniProt P25705), for which the log2 fold change was inactive: -0.018.

As for ARIH2 (UniProt O95376), the log2 fold change is inactive: -0.094.

Consider ARPC3 (UniProt O15145), for which the log2 fold change was inactive: -0.046.

For the target ATPAF2 (UniProt Q8N5M1), the log2 fold change is inactive: 0.032.

As to ATG2B (UniProt Q96BY7), the log2 fold change is inactive: -0.018.

Take ARPC1A (UniProt Q92747): the log2 fold change was inactive: -0.026.

In the case of ATP5F1E (UniProt P56381), the log2 fold change is inactive: 0.042.

With ATE1 isoform 2 (UniProt O95260), the log2 fold change is inactive: -0.046.

With ASPH (UniProt Q12797), the log2 fold change was inactive: 0.086.

In the case of ATP2C1 isoform 7 (UniProt P98194), the log2 fold change was inactive: -0.032.

ATL3 (UniProt Q6DD88): the log2 fold change was inactive: -0.045.

As to ARPC5 (UniProt O15511), the log2 fold change was inactive: 0.032.

Consider ARPC2 (UniProt O15144), for which the log2 fold change was inactive: -0.045.

For the target ATP5MC2 isoform 2 (UniProt Q06055), the log2 fold change is inactive: 0.054.

In the case of ARMC1 (UniProt Q9NVT9), the log2 fold change was inactive: -0.066.

For the target ATF2 (UniProt P15336), the log2 fold change is inactive: 0.033.

Consider ATP6V0D1 (UniProt P61421), for which the log2 fold change is inactive: 0.099.

For the target ASCC3 (UniProt Q8N3C0), the log2 fold change was inactive: 0.211.

With ARPC4 isoform 3 (UniProt P59998), the log2 fold change is inactive: -0.039.

Regarding ARV1 (UniProt Q9H2C2), the log2 fold change is inactive: -0.101.

For ARSB (UniProt P15848), the log2 fold change was inactive: 0.096.

Take ASF1A (UniProt Q9Y294): the log2 fold change was inactive: 0.102.

For ATP11C (UniProt Q8NB49), the log2 fold change is inactive: -0.104.

Turning to ATP2B4 (UniProt P23634), the log2 fold change is inactive: -0.057.
